Measurements reported in Sander's compilation of Henry's law constants.

Assay: Henry solubility constant Hcp at 298.15 K (mol/(m3 Pa))

Henry solubility constant Hcp (reference: Lei et al. (2007)): 0.14 | Henry solubility constant Hcp (reference: Shunthirasingham et al. (2013)): 0.11
Compound: CCCCCCCCCO [1-nonanol]
